According to the supplement of paper PMC10849652:
This is one part of the list.

By UniProt entry, the sequences of proteins in these tests, tags left out. Where a name states a change or a piece, a line headed by the entry shows the natural chain unless it says otherwise.
UniProt Q96JJ7: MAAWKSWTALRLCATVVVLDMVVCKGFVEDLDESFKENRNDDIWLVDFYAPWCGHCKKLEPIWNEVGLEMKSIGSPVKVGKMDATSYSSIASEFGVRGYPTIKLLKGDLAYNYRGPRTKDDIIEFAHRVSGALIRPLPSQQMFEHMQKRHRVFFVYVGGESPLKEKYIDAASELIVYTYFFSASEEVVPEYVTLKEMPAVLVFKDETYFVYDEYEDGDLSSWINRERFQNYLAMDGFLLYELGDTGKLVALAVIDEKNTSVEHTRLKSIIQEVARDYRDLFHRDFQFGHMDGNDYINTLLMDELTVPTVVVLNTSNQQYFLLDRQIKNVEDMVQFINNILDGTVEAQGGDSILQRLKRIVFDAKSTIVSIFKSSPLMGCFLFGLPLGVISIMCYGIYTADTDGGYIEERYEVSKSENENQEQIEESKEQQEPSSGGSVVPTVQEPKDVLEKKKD
UniProt P29144: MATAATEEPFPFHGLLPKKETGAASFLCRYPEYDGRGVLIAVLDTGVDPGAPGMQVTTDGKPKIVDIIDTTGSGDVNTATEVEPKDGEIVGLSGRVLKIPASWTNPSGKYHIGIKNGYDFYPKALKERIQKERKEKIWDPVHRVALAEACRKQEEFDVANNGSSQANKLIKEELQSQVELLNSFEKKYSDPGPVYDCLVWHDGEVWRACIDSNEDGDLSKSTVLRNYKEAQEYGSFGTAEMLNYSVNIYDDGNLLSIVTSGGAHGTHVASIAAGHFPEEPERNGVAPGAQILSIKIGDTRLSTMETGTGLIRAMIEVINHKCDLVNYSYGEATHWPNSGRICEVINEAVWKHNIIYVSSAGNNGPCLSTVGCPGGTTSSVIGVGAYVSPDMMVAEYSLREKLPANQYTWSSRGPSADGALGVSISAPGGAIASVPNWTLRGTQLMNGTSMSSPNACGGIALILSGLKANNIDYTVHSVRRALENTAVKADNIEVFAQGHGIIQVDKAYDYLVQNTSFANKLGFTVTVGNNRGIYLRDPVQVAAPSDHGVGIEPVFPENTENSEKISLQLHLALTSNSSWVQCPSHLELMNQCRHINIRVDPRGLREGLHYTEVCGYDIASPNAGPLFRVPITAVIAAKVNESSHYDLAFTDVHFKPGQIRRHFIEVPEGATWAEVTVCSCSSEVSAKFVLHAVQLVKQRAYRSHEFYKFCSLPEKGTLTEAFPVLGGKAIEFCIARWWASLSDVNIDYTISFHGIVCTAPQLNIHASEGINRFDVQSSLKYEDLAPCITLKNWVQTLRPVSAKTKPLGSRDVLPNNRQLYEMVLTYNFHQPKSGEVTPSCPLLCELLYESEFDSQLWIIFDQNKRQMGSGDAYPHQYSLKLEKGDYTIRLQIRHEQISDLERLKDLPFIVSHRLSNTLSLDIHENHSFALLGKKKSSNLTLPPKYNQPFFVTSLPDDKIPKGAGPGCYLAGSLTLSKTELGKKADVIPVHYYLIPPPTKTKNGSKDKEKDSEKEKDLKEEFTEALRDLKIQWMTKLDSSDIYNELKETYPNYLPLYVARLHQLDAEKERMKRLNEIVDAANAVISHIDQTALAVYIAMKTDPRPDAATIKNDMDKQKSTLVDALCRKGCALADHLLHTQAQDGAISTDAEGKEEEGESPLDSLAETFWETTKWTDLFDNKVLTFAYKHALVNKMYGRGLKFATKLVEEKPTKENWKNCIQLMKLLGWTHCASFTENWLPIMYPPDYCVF
UniProt O14773: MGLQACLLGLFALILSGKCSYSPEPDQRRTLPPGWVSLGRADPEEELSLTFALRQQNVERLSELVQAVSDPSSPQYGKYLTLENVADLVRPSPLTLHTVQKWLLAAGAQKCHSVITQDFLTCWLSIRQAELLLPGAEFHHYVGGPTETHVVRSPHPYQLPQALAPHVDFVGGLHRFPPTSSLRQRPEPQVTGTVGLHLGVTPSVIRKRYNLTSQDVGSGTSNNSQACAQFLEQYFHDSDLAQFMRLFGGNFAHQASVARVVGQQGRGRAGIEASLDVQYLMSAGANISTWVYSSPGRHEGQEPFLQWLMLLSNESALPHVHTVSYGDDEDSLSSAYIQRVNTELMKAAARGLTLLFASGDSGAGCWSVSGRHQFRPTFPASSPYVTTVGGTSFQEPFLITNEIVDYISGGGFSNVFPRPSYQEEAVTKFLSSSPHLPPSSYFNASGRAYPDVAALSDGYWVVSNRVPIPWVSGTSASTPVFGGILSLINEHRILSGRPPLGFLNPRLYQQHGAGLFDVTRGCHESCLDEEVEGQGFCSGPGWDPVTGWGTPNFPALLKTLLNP
UniProt Q9NVV0: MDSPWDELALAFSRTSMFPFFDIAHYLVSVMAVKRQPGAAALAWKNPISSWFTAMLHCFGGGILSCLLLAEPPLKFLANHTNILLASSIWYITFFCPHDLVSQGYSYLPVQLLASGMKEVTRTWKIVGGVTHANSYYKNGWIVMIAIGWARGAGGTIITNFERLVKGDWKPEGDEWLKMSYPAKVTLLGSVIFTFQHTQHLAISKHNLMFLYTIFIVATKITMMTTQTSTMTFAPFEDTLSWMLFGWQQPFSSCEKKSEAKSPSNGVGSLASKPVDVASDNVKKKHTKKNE
UniProt Q13595: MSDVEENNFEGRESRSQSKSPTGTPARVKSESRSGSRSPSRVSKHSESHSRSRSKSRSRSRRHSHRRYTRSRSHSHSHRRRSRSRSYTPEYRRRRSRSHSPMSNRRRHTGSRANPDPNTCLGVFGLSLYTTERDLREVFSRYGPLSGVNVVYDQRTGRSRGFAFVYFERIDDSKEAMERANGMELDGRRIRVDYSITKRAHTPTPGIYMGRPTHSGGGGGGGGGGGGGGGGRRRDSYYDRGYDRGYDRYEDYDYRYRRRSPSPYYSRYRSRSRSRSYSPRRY
UniProt Q9NS69: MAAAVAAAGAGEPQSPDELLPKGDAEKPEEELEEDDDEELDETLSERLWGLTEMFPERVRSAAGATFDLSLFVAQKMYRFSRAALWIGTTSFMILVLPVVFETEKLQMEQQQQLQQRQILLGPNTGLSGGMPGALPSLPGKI
UniProt P09493, whole entry, looked up: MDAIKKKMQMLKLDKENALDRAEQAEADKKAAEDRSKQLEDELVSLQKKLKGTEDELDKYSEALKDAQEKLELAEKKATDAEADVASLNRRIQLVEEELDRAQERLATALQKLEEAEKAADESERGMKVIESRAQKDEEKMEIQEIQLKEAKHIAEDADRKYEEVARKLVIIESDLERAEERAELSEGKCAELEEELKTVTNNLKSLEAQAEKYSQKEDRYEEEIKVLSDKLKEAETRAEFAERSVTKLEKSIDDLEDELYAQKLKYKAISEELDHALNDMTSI
UniProt O60784, whole entry, looked up: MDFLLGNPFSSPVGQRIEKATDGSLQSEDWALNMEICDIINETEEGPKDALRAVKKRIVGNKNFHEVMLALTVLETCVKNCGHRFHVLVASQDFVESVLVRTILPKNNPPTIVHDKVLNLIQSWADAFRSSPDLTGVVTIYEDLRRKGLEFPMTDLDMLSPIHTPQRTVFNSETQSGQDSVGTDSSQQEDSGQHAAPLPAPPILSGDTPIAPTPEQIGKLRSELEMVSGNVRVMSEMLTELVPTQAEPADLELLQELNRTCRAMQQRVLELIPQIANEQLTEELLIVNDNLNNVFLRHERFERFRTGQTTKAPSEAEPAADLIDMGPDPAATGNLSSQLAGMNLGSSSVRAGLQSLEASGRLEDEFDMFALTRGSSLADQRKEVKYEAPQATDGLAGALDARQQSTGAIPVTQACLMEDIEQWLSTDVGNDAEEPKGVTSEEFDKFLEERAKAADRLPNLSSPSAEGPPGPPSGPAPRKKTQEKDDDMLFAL
UniProt Q9NYL9: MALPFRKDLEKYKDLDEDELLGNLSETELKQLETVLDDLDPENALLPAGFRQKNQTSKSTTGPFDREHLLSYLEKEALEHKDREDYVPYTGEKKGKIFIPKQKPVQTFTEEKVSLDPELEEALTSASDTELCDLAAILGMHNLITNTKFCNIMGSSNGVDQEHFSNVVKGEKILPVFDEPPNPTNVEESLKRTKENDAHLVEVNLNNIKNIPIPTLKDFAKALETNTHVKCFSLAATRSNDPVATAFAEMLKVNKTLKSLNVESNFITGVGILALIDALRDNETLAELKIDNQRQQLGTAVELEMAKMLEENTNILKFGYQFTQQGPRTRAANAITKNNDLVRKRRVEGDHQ
UniProt Q5BJF2, whole entry, looked up: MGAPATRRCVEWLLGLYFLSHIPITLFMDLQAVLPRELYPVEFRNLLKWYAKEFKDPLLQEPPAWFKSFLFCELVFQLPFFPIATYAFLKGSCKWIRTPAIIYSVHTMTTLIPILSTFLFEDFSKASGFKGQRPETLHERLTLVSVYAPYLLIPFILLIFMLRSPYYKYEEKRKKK
UniProt P06753, whole entry, looked up: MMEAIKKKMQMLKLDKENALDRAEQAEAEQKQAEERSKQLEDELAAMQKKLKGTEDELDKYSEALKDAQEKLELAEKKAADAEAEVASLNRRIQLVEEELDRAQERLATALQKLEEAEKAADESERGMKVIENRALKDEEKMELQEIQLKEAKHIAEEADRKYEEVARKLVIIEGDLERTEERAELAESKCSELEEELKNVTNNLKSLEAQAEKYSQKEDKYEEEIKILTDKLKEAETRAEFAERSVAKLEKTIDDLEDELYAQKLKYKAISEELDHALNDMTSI
UniProt P11387: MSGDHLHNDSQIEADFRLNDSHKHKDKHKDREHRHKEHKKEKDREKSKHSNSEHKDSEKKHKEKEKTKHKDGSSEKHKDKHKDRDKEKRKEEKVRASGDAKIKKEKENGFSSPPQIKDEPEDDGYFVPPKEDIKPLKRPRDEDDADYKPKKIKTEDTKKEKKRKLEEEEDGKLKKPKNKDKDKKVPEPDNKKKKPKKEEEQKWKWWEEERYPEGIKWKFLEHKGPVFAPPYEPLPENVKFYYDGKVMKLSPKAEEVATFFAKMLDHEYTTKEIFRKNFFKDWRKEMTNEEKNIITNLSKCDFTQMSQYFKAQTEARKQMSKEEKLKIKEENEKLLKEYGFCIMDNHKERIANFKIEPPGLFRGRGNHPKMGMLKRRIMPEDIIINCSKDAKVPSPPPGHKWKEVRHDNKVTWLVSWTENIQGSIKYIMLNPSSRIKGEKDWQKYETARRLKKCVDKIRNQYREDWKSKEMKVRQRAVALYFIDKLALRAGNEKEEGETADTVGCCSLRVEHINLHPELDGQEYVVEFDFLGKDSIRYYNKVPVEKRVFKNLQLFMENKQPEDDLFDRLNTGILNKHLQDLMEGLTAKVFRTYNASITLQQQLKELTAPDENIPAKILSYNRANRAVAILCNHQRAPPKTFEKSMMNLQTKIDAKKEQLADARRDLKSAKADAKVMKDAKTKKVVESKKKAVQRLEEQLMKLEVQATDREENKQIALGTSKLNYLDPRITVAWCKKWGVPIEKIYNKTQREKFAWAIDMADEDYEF
UniProt O94826, whole entry, looked up: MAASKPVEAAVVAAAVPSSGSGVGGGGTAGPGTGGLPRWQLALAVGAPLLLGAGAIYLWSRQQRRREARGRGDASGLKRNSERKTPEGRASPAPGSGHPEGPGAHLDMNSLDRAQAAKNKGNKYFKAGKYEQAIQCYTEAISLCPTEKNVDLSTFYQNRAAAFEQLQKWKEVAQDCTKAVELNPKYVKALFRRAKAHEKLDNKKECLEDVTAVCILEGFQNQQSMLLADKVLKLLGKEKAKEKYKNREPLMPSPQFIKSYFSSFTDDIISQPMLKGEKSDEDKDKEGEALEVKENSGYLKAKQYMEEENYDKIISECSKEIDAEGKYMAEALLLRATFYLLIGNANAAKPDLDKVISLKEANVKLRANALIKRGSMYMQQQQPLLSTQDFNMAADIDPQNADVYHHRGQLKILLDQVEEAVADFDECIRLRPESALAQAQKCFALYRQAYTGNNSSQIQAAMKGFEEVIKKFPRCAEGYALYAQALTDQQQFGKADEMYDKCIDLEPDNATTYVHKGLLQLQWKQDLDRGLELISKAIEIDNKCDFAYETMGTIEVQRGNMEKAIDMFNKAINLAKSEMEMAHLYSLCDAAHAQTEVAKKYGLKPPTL
UniProt P51580: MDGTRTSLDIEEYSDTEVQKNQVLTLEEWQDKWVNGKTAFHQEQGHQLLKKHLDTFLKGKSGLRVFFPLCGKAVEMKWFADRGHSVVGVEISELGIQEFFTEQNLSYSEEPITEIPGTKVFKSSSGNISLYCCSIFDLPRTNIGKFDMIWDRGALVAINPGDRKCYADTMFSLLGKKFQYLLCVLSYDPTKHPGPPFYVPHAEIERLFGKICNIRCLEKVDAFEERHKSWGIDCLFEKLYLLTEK
UniProt Q53FA7: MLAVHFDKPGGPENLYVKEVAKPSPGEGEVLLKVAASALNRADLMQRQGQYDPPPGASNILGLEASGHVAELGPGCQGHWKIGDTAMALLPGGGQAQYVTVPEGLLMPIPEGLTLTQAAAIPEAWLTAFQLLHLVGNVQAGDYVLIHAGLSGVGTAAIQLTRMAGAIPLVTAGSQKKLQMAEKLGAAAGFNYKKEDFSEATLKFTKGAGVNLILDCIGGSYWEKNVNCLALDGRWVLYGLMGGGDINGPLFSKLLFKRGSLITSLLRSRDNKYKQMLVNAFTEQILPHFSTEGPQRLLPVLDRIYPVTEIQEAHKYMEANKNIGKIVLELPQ

Each target was assayed with CNC(=O)c1ccc(Nc2ncc(C(F)(F)F)c(NCc3nccnc3N(C)S(C)(=O)=O)n2)cc1 [defactinib] (assay: log2 fold change, soluble protein after heating vs DMSO (PISA); higher = thermal stabilisation; K562 lysate, 10 uM; active = over 0.2 and 3.5 SD of the protein, either way, in both replicates (recomputed)).
How it was run: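 Soluble protein was defined as the supernatant remaining after 21,000xg for 90 min, following pooling of heated aliquots and adjustment to 0.5% NP-40 at 4°C. Before that, crude K562 extract at 1 mg/mL protein in PBS pH 7.4 with 1 mM MgCl2 was treated with 10 μM compound for 30 min and heated for 3 min across 48°C-58°C. Quantification used TMTpro 16plex LC-MS/MS with channel sums equalised, and values are log-two fold changes in thermal stability relative to solvent controls from duplicates.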

Target | log2 fold change
TMX3 (UniProt Q96JJ7) | inactive: -0.014
TOR3A (UniProt Q9H497) | inactive: 0.01
TMEM63B (UniProt Q5T3F8) | inactive: 0.043
TPP2 (UniProt P29144) | inactive: -0.014
TPP1 (UniProt O14773) | inactive: 0.057
TNIK isoform 4 (UniProt Q9UKE5) | inactive: 0.148
TPD52L2 isoform 7 (UniProt O43399) | inactive: 0.023
TMEM38B (UniProt Q9NVV0) | inactive: 0.09
TRA2A (UniProt Q13595) | inactive: 0.171
TOMM22 (UniProt Q9NS69) | inactive: -0.01
TPM1 isoform 4 (UniProt P09493) | inactive: -0.031
TOM1 isoform 2 (UniProt O60784) | inactive: 0.012
TMOD3 (UniProt Q9NYL9) | inactive: -0.019
TMEM97 (UniProt Q5BJF2) | inactive: -0.021
TMEM68 (UniProt Q96MH6) | inactive: 0.024
TPM3 isoform 2 (UniProt P06753) | inactive: 0
TPX2 (UniProt Q9ULW0) | inactive: 0.01
TOP1 (UniProt P11387) | inactive: -0.01
TNIP1 (UniProt Q15025) | inactive: 0.042
TOMM70 (UniProt O94826) | inactive: -0.02
TMEM219 (UniProt Q86XT9) | inactive: 0.111
TPMT (UniProt P51580) | inactive: 0
TP53I3 (UniProt Q53FA7) | inactive: 0.024

Two neighbouring records from above, quoted:
Target | log2 fold change
TPX2 (UniProt Q9ULW0) | inactive: 0.01
TOP1 (UniProt P11387) | inactive: -0.01
